Results are given in words; binding and its absence hold for the method and conditions named. Binding seen in cells or lysates may run through a third protein. Some results given as binding are weak or reduced against the parent protein; the word gives no strength. Sequences can lack the tags named with a protein.
Biological target: T1, StrepII-tagged B7-H4 (UniProt Q7TSP5)
T1 sequence: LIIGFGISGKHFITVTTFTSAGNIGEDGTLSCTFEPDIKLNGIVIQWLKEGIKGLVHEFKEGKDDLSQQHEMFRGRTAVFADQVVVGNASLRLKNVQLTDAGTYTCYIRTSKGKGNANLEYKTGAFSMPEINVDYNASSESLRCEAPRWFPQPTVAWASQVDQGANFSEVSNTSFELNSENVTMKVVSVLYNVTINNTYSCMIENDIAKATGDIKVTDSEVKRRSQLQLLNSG
Experiment: co-IP; lysates (also cytoplasmic and nuclear samples) of 293T cells overexpressing StrepII-tagged B7-H4 with Flag-tagged PTEN or HA-tagged AKT; precipitated using strep-tactin sepharose, western blotting for Flag, HA, endogenous AKT or endogenous PTEN

Sequences of proteins named here, by UniProt entry; tags and fusion partners are left off.
UniProt O08586: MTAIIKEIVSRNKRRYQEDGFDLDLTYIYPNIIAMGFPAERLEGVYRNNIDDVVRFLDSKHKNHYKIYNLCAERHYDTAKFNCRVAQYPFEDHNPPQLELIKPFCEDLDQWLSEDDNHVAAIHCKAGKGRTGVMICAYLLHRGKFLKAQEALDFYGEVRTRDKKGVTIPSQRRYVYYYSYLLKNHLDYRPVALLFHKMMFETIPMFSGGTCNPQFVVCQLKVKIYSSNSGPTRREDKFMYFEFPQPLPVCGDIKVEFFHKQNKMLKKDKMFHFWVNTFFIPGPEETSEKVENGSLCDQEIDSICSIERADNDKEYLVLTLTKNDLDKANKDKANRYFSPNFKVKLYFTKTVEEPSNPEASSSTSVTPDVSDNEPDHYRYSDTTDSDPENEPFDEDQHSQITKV

- binding: binds
Substance: Flag-tagged PTEN (from UniProt O08586 1-403)
